Test results published in the supplement of paper PMC9254222.
The full ranking holds about 1,100 compounds; the median of “Renilla luciferase signal (cell health) relative to plate median” is about 0.97, and the highest 2% start at about 1.6. The list shows a part of the results, in another mix than the full data.

Tested on: HEK293T (UBE3A T485A transfected, BAR Wnt reporter)
Experiment: Renilla luciferase signal (cell health) relative to plate median (fold (linear ratio)); higher = higher Renilla signal
Conditions: 24 h
Method in brief: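 HEK293T cells carrying a transfected BAR firefly luciferase Wnt reporter, TK-Renilla and an expression plasmid were exposed to chemicals at 0.01–100 uM for 24 h, with dosing four hours after transfection. Readout used Dual-Glo luciferase. The firefly/Renilla ratio defined Wnt activity and raw Renilla defined cell health, each median-centred per plate. Figures are means of four biological replicates.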

Row | Structure (SMILES) | Renilla luciferase signal (concentration: 0.1 uM) | Renilla luciferase signal (concentration: 1 uM) | Renilla luciferase signal (concentration: 10 uM) | Renilla luciferase signal (concentration: 100 uM) | Renilla luciferase signal (concentration: 0.01 uM)
1 | CCCCCCC(=O)O [Heptanoic acid] | 1.16 | 1.17 | 1.22 | 1.52 | 
2 | CCCCCCCCOc1ccc(C(=O)c2ccccc2)c(O)c1 [Octabenzone] | 1.14 | 1.04 | 1.05 | 1.13 | 
3 | CC(=O)NC1(c2cccc(F)c2)CCN(CC[C@@]2(c3ccc(Cl)c(Cl)c3)CN(c3ccccc3)C(=O)CO2)CC1.O=C(O)CCC(=O)O | 1.07 | 0.952 | 0.509 | 0.0198 | 
4 | Cl.Clc1cc(Cl)c2c(c1)N=C1CCCCCN1C2 | 1.18 | 1.11 | 1.25 | 0.238 | 
5 | CCCCCCCCCCCCN1CCCC1=O [1-Dodecyl-2-pyrrolidinone] | 0.846 | 0.856 | 0.929 | 0.883 | 
6 | Cc1ccc2ncccc2c1 [6-Methylquinoline] | 0.59 | 0.634 | 0.624 | 0.879 | 
7 | Cc1oc(-c2ccccc2)nc1CCOc1ccc(C[C@H](Nc2ccccc2C(=O)c2ccccc2)C(=O)O)cc1 [Farglitazar] | 0.762 | 0.899 | 0.957 | 1.58 | 
8 | O=c1n(CC2CO2)c(=O)n(CC2CO2)c(=O)n1CC1CO1 (stereo not drawn) [Triglycidyl isocyanurate] | 1.41 | 1.3 | 0.309 | 0.0183 | 
9 | Clc1ccccc1C(c1ccccc1)(c1ccccc1)n1ccnc1 [Clotrimazole] | 0.826 | 1.07 | 1.14 | 1.15 | 
10 | CCN(Cc1cccnc1)C(=O)c1cccc(Cl)c1[C@]1(C)C(=O)N(Cc2ccc(OC)cc2OC)c2ccc(Cl)cc21.Cl | 1.07 | 0.917 | 0.473 | 0.042 | 
11 | CCOC(=O)C(C)Oc1ccc(Oc2nc3ccc(Cl)cc3o2)cc1 (stereo not drawn) [Fenoxaprop-ethyl] | 0.851 | 1.02 | 1.13 | 1.78 | 0.9
12 | CN(C)[C@@H]1C(O)=C(C(N)=O)C(=O)[C@@]2(O)C(O)=C3C(=O)c4c(O)cccc4[C@@](C)(O)[C@H]3C[C@@H]12 [Tetracycline] | 0.672 | 0.805 | 0.694 | 1.7 | 
13 | C#CC(O)C(CC)CCCC (stereo not drawn) [4-Ethyloct-1-yn-3-ol] | 0.974 | 0.88 | 1.01 | 1 | 
14 | Cc1[nH]cnc1C[C@H]1CCc2c(C)c3ccccc3n2C1=O.Cl [Fabesetron hydrochloride] | 0.837 | 0.832 | 0.769 | 0.043 | 
15 | O=[N+]([O-])C(CO)(CO)CO [2-(Hydroxymethyl)-2-nitro-1,3-propanediol] | 0.94 | 0.943 | 1.08 | 1.15 | 
16 | CCCCC(CC)CN1C(=O)C2C3C=CC(C3)C2C1=O (stereo not drawn) | 1.01 | 1.02 | 0.814 | 0.469 | 0.727
17 | OC1CCCCC1 [Cyclohexanol] | 1.14 | 1.08 | 1.12 | 1.46 | 
18 | CCCN(CCC)C(=O)SCC | 0.898 | 1.09 | 0.918 | 2.92 | 0.911
19 | C[C@](N)(Cc1ccc(O)c(O)c1)C(=O)O.C[C@](N)(Cc1ccc(O)c(O)c1)C(=O)O.O.O.O [Methyldopa sesquihydrate] | 0.955 | 0.989 | 0.993 | 1.29 | 
20 | CCCCN(CCCC)CCCC [Tributylamine] | 1.11 | 1.01 | 1.1 | 1.34 | 

Looked up above:
Under Renilla luciferase signal (concentration: 10 uM), `CCCCCCC(=O)O` [Heptanoic acid] shows 1.22
Under Renilla luciferase signal (concentration: 100 uM), `CCN(Cc1cccnc1)C(=O)c1cccc(Cl)c1[C@]1(C)C(=O)N(Cc2ccc(OC)cc2OC)c2ccc(Cl)cc21.Cl` shows 0.042
Under Renilla luciferase signal (concentration: 1 uM), `O=c1n(CC2CO2)c(=O)n(CC2CO2)c(=O)n1CC1CO1` (stereo not drawn) [Triglycidyl isocyanurate] shows 1.3
Under Renilla luciferase signal (concentration: 10 uM), `CCCCCCCCCCCCN1CCCC1=O` [1-Dodecyl-2-pyrrolidinone] shows 0.929

The list continues:

Row | Structure (SMILES) | Renilla luciferase signal (concentration: 0.1 uM) | Renilla luciferase signal (concentration: 1 uM) | Renilla luciferase signal (concentration: 10 uM) | Renilla luciferase signal (concentration: 100 uM) | Renilla luciferase signal (concentration: 0.01 uM)
21 | CCN(CC)CCOc1ccc(C(=C(Cl)c2ccccc2)c2ccccc2)cc1.O=C(O)CC(O)(CC(=O)O)C(=O)O [Clomiphene citrate (1:1)] | 0.837 | 0.85 | 0.818 | 1.02 | 
22 | CC(=O)O.COCCOc1cc2cc(C(=O)NC3CCN(C(C)C)CC3)n(CC(=O)Nc3ccc(Cl)cn3)c2cn1 | 1.26 | 1.05 | 1.06 | 0.0998 | 
23 | CC(=O)c1ccccc1 [Acetophenone] | 0.867 | 0.964 | 0.94 | 1.11 | 
24 | NC(=O)N1C(=O)C(C(=O)c2cc(Cl)cs2)c2cc(F)c(Cl)cc21 (stereo not drawn) | 1.12 | 1.19 | 1.14 | 1.41 | 
25 | Cc1cccc(Nc2cc(Cl)nc(SCC(=O)O)n2)c1C [Pirinixic acid] | 0.799 | 0.871 | 0.861 | 1.71 | 
26 | O=C(O)c1ccc([N+](=O)[O-])cc1 [4-Nitrobenzoic acid] | 1.01 | 0.971 | 1.08 | 1.33 | 
27 | CNC(CC(=O)O)C(=O)O (stereo not drawn) | 1.14 | 0.949 | 1.02 | 1.9 | 1.02
28 | CC(C)(C)c1csc(-c2cc3cc(OCc4ccccc4CC(=O)O)ccc3o2)n1 | 0.885 | 0.877 | 0.595 | 0.0363 | 
29 | OCCOCCOCCO [Triethylene glycol] | 1.08 | 1.04 | 1.07 | 1.09 | 
30 | NC(N)=O | 0.822 | 0.881 | 0.967 | 1.1 | 
31 | O=c1[nH]sc2ccccc12 [1,2-Benzisothiazolin-3-one] | 1.17 | 0.985 | 0.439 | 0.0372 | 
32 | c1ccc(C(O[C@@H]2CCCN(CCc3ccc4c(c3)OCO4)C2)c2ccccc2)cc1 [Zamifenacin] | 1.17 | 1.18 | 1.14 | 1.39 | 
33 | CC(C)C(=O)OCC(C)(C)C(OC(=O)C(C)C)C(C)C (stereo not drawn) [2,2,4-Trimethyl-1,3-pentanediol diisobutyrate] | 0.923 | 0.897 | 0.927 | 1.06 | 
34 | CC(C)CC(C)(O)C#CC(C)(O)CC(C)C (stereo not drawn) [2,4,7,9-Tetramethyl-5-decyne-4,7-diol] | 0.987 | 0.919 | 0.966 | 0.295 | 
35 | CN(C)[C@@H]1C(O)=C(C(N)=O)C(=O)[C@@]2(O)C(O)=C3C(=O)c4c(O)cccc4[C@@](C)(O)[C@H]3[C@H](O)[C@@H]12.Cl [Oxytetracycline hydrochloride] |  |  | 2.28 |  | 
36 | CC(C)OC(=O)C(C)(C)Oc1ccc(C(=O)c2ccc(Cl)cc2)cc1 [Fenofibrate] | 0.681 | 0.807 | 0.783 | 0.955 | 
37 | COc1ccc2sc(C(=O)Nc3nnn[n-]3)c(OC(C)C)c2c1.[Na+] | 0.921 | 0.724 | 0.388 | 0.0286 | 
38 | OCC(CO)(CBr)CBr [2,2-Bis(bromomethyl)-1,3-propanediol] | 0.999 | 0.961 | 1.01 | 1.07 | 
39 | OC[C@H]1O[C@@](CO)(O[C@H]2O[C@H](CO)[C@@H](O)[C@H](O)[C@H]2O)[C@@H](O)[C@@H]1O [Sucrose] | 1.07 | 1.06 | 1.06 | 1.19 | 
40 | COC(=O)c1ccc(O)cc1 [Methylparaben] | 0.9 | 0.928 | 1 | 1.22 | 

Row | Structure (SMILES) | Renilla luciferase signal (concentration: 0.1 uM) | Renilla luciferase signal (concentration: 1 uM) | Renilla luciferase signal (concentration: 10 uM) | Renilla luciferase signal (concentration: 100 uM) | Renilla luciferase signal (concentration: 0.01 uM)
41 | CCN(Cc1cccc(S(=O)(=O)[O-])c1)c1ccc(C(=C2C=CC(=[N+](CC)Cc3cccc(S(=O)(=O)[O-])c3)C=C2)c2ccccc2S(=O)(=O)[O-])cc1.[Na+].[Na+] | 1.01 | 1.02 | 0.97 | 0.914 | 
42 | CCCCCCCC/C=C\CCCCCCCC(=O)OC[C@@H](O)[C@H]1OC[C@H](O)[C@H]1O [Sorbitan, mono-(9Z)-9-octadecenoate] | 1 | 0.88 | 0.863 | 0.85 | 
43 | CCCCC(CC)COC(=O)CCCCCCCCC(=O)OCC(CC)CCCC (stereo not drawn) [Bis(2-ethylhexyl) decanedioate] | 0.914 | 0.879 | 0.929 | 1.19 | 
44 | COCCOCCOC [Bis(2-methoxyethyl) ether] | 1.08 | 1.3 | 1.34 | 1.31 | 
45 | NC(=O)c1nc(-c2cccc(-c3cc(F)ccc3OCC(F)(F)C(F)(F)F)c2)n[n-]1.O.[K+] | 0.946 | 0.78 | 0.498 | 0.0369 | 
46 | CN1C(=O)CC[C@H]1c1cccnc1 [Cotinine] | 0.96 | 1.03 | 1.1 | 0.923 | 
47 | O=Cc1ccccc1C=O [1,2-Benzenedicarboxaldehyde] | 0.99 | 0.942 | 1 | 1.03 | 
48 | CC(C)(O)c1coc(S(=O)(=O)NC(=O)Nc2c3c(cc4c2CCC4)CCC3)c1 | 0.993 | 1.01 | 1.05 | 0.789 | 
49 | COC(=O)CCCCC(=O)OC [Dimethyl adipate] | 0.854 | 0.917 | 0.874 | 1.11 | 
50 | CCCCCCCCCCCCO [1-Dodecanol] | 0.721 | 0.824 | 0.728 | 0.97 | 
51 | N[C@@H](Cc1cc(I)c(Oc2ccc(O)c(I)c2)c(I)c1)C(=O)O [3,5,3'-Triiodothyronine] | 0.904 | 1.24 | 2.47 | 2.22 | 
52 | CC(COCC(C)OC(=O)c1ccccc1)OC(=O)c1ccccc1 (stereo not drawn) [Di(propylene glycol) dibenzoate] | 1 | 0.981 | 1.08 | 1.23 | 
53 | OCC(CO)n1cnc(-c2ccc(F)cc2)c1-c1ccnc(Oc2ccccc2)n1 | 0.68 | 0.813 | 0.859 | 0.79 | 
54 | O=c1c(-c2ccc(O)cc2)coc2cc(O)cc(O)c12 [Genistein] | 0.604 | 0.77 | 0.58 | 1.01 | 0.617
55 | COc1cccc(-c2ccc(/C=C\CN3CCCCCC3)cc2Cl)c1.Cl | 1.01 | 1.16 | 1.14 | 2.06 | 
56 | S=C([S-])NCCNC(=S)[S-].S=C([S-])NCCNC(=S)[S-].[Mn+2].[Zn+2] [Mancozeb] | 1.15 | 1.12 | 1.19 | 0.0262 | 1.14
57 | CCc1c(C(=O)NN2CCCCC2)nn(-c2ccc(Cl)cc2Cl)c1-c1ccc(Br)cc1 [Surinabant] | 1.06 | 1.07 | 0.127 | 0.363 | 
58 | Cn1cnc2c1c(=O)[nH]c(=O)n2C [Theobromine] | 0.97 | 0.856 | 1.15 | 1.22 | 
59 | CC(=O)CC(C)(C)O [Diacetone alcohol] | 1.08 | 1.15 | 1.22 | 1.45 | 
60 | CC/C(=C\C(=N/O)C(N)=O)C(C)[N+](=O)[O-] (stereo not drawn) | 1.17 | 1.15 | 1.15 | 0.968 | 
